Results are given in words; binding and its absence hold for the method and conditions named.
B1: PRO3744, scFv (VL-linker-VH) 68-18-E11-sc07_(VL_A67G_S68G_T141C; VH_G51C_T101S_T146K) (scFv)
scFv: DVQMTQSPSSLSASVGDRVTITCQASQSIGSNLAWYQQKPGKPPKLLIYKGGTLESGVPSRFSGSGSGTDFTLTISSLQPEDFATYYCQSTAGSSRSGNYGYVFGCGTKVTVLGGGGGSGGGGSGGGGSGGGGSQQLVESGGGLVQPGGSLRLSCAASGFSFTNNYYMCWVRQAPGKCLEWIACMLVGAWGNTYYASWANGRFTISKDNSKNTVYLQMNSLRAEDSAVYFCARARDYTWTLGGDPETSGFNLWGQGTLVKVSS
B2: PRO3696, scFv (VL-linker-VH) 69-01-E02-sc06_(VL_A67G_S68G; VH_T101S_L146K) (scFv)
scFv: DVQMTQSPSSLSASVGDRVTITCQASQSIGLNLAWYQQKPGKPPKLLIYAGGYLASGVSSRFSGSGSGTDFTLTISSLQPEDFATYYCQSTYDGSSFVFAFGTGTKVTVLGGGGGSGGGGSGGGGSGGGGSQEQLVESGGGLVQPGGSLRLSCAASGFSFSSSSYMCWVRQAPGKGLEWIACMVTGSSDDTDYASWAKGRFTISKDNSKNTVYLQMNSLRAEDSAVYFCARAGSAPLWGQGTLVKVSS
B3: PRO3697, scFv (VL-linker-VH) 69-06-G04-sc05_(VL_A67G_S68G; VH_T101S_L146K) (scFv)
scFv: AFQLTQSPSSLSASVGDRVTITCQASQSIGTYLAWYQQKPGKPPKLLIYRGGTLASGVPSRFSGSGSGTDFTLTISSLQPEDFATYYCQSYDSSNTFGTGTKVTVLGGGGGSGGGGSGGGGSGGGGSQEQLVESGGGLVQPGRSLRLSCAASGFDLSADYMCWVRQAPGKGLEWIACIYIDDDNTYYATWAKGRFTISKDNSKNTVYLQMNSLRAEDSAVYFCARGYGVYTGAITYFTLWGQGTLVKVSS

What follows are binders tested against recombinant cynomolgus LILRB2 (cynomolgus (Macaca fascicularis)) (assay: SPR, LILRB2 immobilised, scFv as analyte).
In the case of B1, the binding is reported as “no binding (tested: 10 nM)”. With B2 the binding was “no binding (tested: 10 nM)”. In the case of B3, the binding is reported as “no binding (tested: 10 nM)”.

Source: patent publication EP4574843A1
